Measured values taken from paper PMC10731500.
These are yes or no findings as the source states them, for the method shown. Some entries that bind do so weakly or less than the wild type.

Sequences of proteins named here, by UniProt entry; tags and fusion partners are left off. Residues count along the entry.
UniProt P38398, residues 219-504: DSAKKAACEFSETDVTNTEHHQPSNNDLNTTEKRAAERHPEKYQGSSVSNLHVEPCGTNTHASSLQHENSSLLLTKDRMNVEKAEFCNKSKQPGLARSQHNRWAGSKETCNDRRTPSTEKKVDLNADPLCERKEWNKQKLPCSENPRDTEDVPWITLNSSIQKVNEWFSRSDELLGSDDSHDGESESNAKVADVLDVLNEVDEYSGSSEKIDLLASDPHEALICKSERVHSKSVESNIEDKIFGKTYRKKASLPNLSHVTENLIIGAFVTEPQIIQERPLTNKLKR
UniProt P61244: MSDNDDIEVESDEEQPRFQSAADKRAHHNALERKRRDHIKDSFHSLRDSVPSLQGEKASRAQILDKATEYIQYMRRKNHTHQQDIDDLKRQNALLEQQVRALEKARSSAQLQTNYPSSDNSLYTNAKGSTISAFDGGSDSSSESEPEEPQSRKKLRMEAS

Key:
[1] = molecular target: BRCA1 (breast cancer susceptibility protein 1) fragment housing amino acids 219-504 (UniProt P38398); experiment: NMR titration; 1H-15N signal amplitudes, chemical shift perturbations, 15N T2 and heteronuclear NOE of MAX with BRCA1 219-504; 35°C, pH 5.5, high organic salt concentrations; the disordered MAX monomer dominates; both purified
[2] = molecular target: BRCA1 (breast cancer susceptibility protein 1) fragment housing amino acids 219-504 (UniProt P38398); experiment: SAXS; pair distance distribution functions of BRCA1 219-504 in the absence and presence of MAX; both purified
[3] = molecular target: BRCA1 (breast cancer susceptibility protein 1) fragment housing amino acids 219-504 (UniProt P38398); experiment: condition: only MAX as the MAX:MAX homodimer (before the temperature was raised to 35°C); NMR titration; 1H-15N spectra of the MAX:MAX homodimer exposed to BRCA1 219-504, before the temperature was raised to 35°C; pH 5.5, high organic salt concentrations; temperature not given; both purified

MAX (MYC-associated factor X) (from UniProt P61244 1-160)
binding [1]: binds
binding [2]: binds
binding [3]: no binding
